First the molecules themselves.
T1: N-His-aIF5A produced in Sso PH1-16 (pMJ05-N-His-aIF5A) (Sulfolobus solfataricus) (UniProt Q97ZE8)
T1 sequence (chain, modified, recognised by anti-hypusine antibodies (hypusine or deoxyhypusine)): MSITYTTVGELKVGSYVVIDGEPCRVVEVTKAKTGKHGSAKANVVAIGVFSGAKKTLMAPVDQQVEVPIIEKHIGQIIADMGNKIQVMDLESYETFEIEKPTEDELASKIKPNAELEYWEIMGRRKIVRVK

B1: Nad kinase (protein, UniProt Q97WJ8 1-249)
chain: MRVKIVSKPTSQLNYTVEKIKNISNKLGFEVVDIDFDYVIAVGGDGTLLRAVKLGKPVIAIKAGRRGLLMDVPVDKIEDALLRLKKGDYNEEEYMLLEMVHNDKVELGFNEIGILYDRPEAIKVGISFDTERVSVEGDGVLVSTPQGSSGWGMSATNSLLYKDLNAIEIIFVNPIFYYLRSVVIPPKSLILRLEDKGYPQTARVVVDGEVVTLIKTNQEITVRVSQHKAKILRFFKLDLIGEVLHAYHI
B2: Acetate kinase (protein, UniProt Q980R6 1-302)
chain: MARQPLMIYVGIDPGSETYAFAFVDELGNLIKYFEICTDLVEKSSIFLAKLIADYRPMAVALPSGHGLPFYNIRNINNREIFILTLKDPLSHGPLRDFLLASKQYLSFYNSFTIPSVIELNSLPNDRKVNVIDKGTADKVASTFFYRVYLKLDNFILVEMGRRFTAIVIVINGKIVDGYGGTYLSGLDGEIAYLLHKYSRIDKSTVYNVGRNLELTRIIVEWYSDKYKLPIIVSGYNKNYLEIGKKYDFKFKEAAVGAAFIANAYSGGLLRHYISMLDSSGTPISFVRLKEWDEIISWIETL
B3: Serine hydroxymethyltransferase (protein, UniProt Q9UWT5 1-433)
chain: MSLPKELEKVLEITKAQNVWRRTQTLNLIASENVMSPLAESVYMSDFMSRYAEGKPYKRYYQGTKYTDEIETLTMELMNEITNSKDCDLRPTSGTIANAAVFRVLAEPGDKALIAPVQAGAHVSHTKFGTLGALGIQHIEMPFDEENINVDVDKAIKMIEEVKPKFVVLGGSLYLFPHPTKELAQHVHAVGAKLVYDAAHVYGLIEGKVWSNPLKDGADIMTVSTHKTFPGPQGGAIFSDGSEVFKQVSKTIFPWFVSNHHLHRLPATAVTAIEMKYFGESYANQILRNSKALAEALAERGFKVIGENLGYTKSHQVAVDVRQFGGGNKIAKLLEDANIIVNKNLLPYDKPEDVSDPSGLRIGVQEMTRYGMKEGEMEEIAELFKKVIIDKKDVNEVKKEVIEMRRNFLEVKYTFDDMKDLEKYSSKSLKLII
B4: 3-Hydroxyacyl-CoA dehydrogenase (protein, UniProt Q97VU5 1-663)
chain: MKVEDIKKILVVGAGTMGHGIAEIAAISGYKVYLSDISQDILNNALERIRWSLSKLQERGQIKESVDTIMSRITTIVGLDKTVSDADFSIEASTERMDIKRQVFSKLDELLPPHAILATNTSSLPISKIAEATKRQDKVVGMHFFNPPVLMQLVEVMKGDKTSDETAKITYDLAKKFGKQPIMINKDVPGYVVNRILGQINIASCILVEKKVADYREVDAVARYKLGFPMGVFELIDYTGVDVAYYVSKSREELGIRDDIPICSLIEQKFKNNELGVKTGKGFYTYPAPGKYVKPELPKELADKLNPALILAGGVNEATRLLREGIASRDDIDLGVRLGLGLPKGIFQYADELGVDTVLKALEDLKALSGYNTFNPDPMITQMIRENKLGIKTGSGFYQYGKVEEKKMNTLIIRIEPPLAWIILNRPERLNALNPELVSELDKSLDELESRSDVRVVIITGNGRAFSAGADVSSFITLRPIDVIRLRTLRNVVNKIALYTKPIIAGINGFALGGGLELAMACDIRIASEVAQLGQPEINIGIIPGAGGTQRLPRLVGKGKAKLMIYTGDMVSAEDAYKMGLVDLVVPSNRFEEEVRRVALKIAEKSPISLLAAKLAIELGYESNIWTGQTLESTLFGLLFTTKDVEEGVKAFLEKRKPQFKGE
B5: Dehydrogenase (protein, UniProt Q97V56 1-292)
chain: MEDVKKFKYFTVSPLAFGTWRIGGGYWYSSHDRDNEWVGAIRRAIELGLRVIDTAEMYGNGHAEELVGEAIKEFSREELFIVSKVWPSHADYDNVIKSAKNSSRRLGTYIDLYLLHAPSRVPICKTIRAFEKLVDDGVIRFFGLSNFDVDQIESARECVSKYEIVAIQNHYSLLSRSDERRALAYAEKNGLMYMAYTPLENGILARNEFLANIGKKYNKTATQVALNWYITGKNSLIPIVKASKIPHIEENAGAMGWRLSEEDWRAIDEHFREKSYFLDKFVSSLKSMRPWS
B6: Alpha-mannosidase (protein, UniProt Q97UK5 1-968)
chain: MRNINELEARLILTLGNSFRNLRQLRWNLENHNKAYLEIEGKGNSYLLIVDHKGSGLIRLDDKPYFELDRYHTLIPIPFGNHKISLELSHYMDFGEKVDISAGIPFYTEIDSNAYKLYVYGSQILDLVRSINDNEVKDDLISALSKALHEAYFETISKEQLFILSKLIRTTLDVSRMVQEIEEPLDVYKEDENRSKFEGALNTLRSELSKLVNKYGKRGVLVGTGHAHIDTAWLWPFDETRRKVLRTFSTILTLLDKYDFHFIQSAAIYYEWVKADSPELFVRIKEKVKEGKWELAALYVESDANMVSGESLARQFLYSQRFYLENFGKLANILWLPDTFGFSASLPQIAKLGGVKAFATHKVFWNDTNKFPYNVFKWVGPNGDYLPAIAFGHGKGGYNSDFSASSVLEQYNNWAQKDQPMLYSYGYGDGGGGPNEDMLIRAEAVNLLPILPKVELSGVNSYIQRIVPVEEWRGELYLETHRGVLTSHSKMKLLNRSAEIALREAELWSTLARTYDKEVFTKLWKVVLKDQFHDVLPGSAIKDVYKVAYQELEEVINKANNVASEAMQKLVGGSGDKTFVFNSLSWDREEYIEADGKLVKVRVPSVGFSLLEPVEVRDKAVINENNAEYLVENKYFRVRISKSGQVLSLFDKEANREVLRDKSNLLIAYENIPGWADAWDIEKGFEDRSFEIRASSSEIVNNDGIVASIKFTYKFRRSEIIQIVRVYADSRRIDFITTLRMRDRELLVKSWFNFDLNVERAVSDIPFGVVERFTWSNTSWDKARFEVPIQKFVDFSESEYGAALLNNGKYGATLRGSSVGLSLTKTPIYPDPSTDLEEVTFIYSLYPHIGDWKRAEVIKRAYELNVPLRVVKGVSEVKRKSFIRINDSKLILEAVKVAEDDNNSVVLRLYEYENTRGEAYVEVPFNVTEARSLDLLELNEVPRDIVIEGNRIKVKYKNRDILTISVRG
B7: Aldose 1-epimerase (protein, UniProt Q97V88 1-262)
chain: MKIKKGDTEAEILTKGAYLYSFKIGNRDMILRGDLERPTRGGMAILIPFANRVKNAEYVFEGVKYTLPQNREGNAIHGLVMDKEFNVIGKSEDSISLQYILEHEGYPSKLDCVITYKVFKYGLRIKIVVRNVGNKRAPLTVGAHPYFITADDWRIVVEKEESIKKCISFNKIPTGELVKTKLEHTDYDDCFLISGGIQLHSSYSKVRITRRNMPFVQIYTGVRGSIAIEPMSGAPDAYHNGLGLKILEPNESSYFAFAFRFH
B8: Xylose isomerase (protein, UniProt Q97UG9 1-237)
chain: MFLSSMKLGIQSYSLRKLTYENALKVMSELGISYVEAFPRHLPPSSNSVKDIINLHKENGVKVIAHGVNHLKSDKKELRSIFDFANKVEIEVITADPDEDCLNLMSDLVKEYDIKVAIHNHGPYHRWGSYKKIYEFTKNLDYRVGMCLDLAHLFRYGENPIEAVNTLRDRIHDIHVKDVNNKGEDVIVGSGILDVKGVIGKVKELNLDIPLMIEYEPEPENPLPGIVKSLEYVKKLL
B9: Intracellular proteinase (protein, UniProt Q97Z65 1-173)
chain: MDSKKVLFLVGEEFEDIELLYPFYRVMEEGFKPVIAWKEANSKVIGKHGYTVISDIAFKDVRPEDYIALVIPGGRGPEHIRTLEEVKNITRKFFELKKPVAAICHGPQILISANLVKGRKLTSVNSIKDDVIAAGGIYVDNDVVVDENLISSRVPSDLPAFASTLIKALKSIK
B10: Amidohydrolase (protein, UniProt Q97UJ5 1-286)
chain: MKSYYMGYVDAHTHVWFKETLPKDFFSNDSGYEYTPPSVQEIIKEMDSVNIDYIVIIAYPSREIWRTKEDFPIAMIKFLKEYGNRFSIVGGIEPNRISLNEAKDWLERQYEAGVSGFKLHPVHSHVKPNAYREEEGGLKQLELLYEFAQDHNLPVVIHTGTSVFLKARNKYADPIFVDDVAVDFPQLKIVLAHMGRPNYVPTAFQLVRIRRNLYGEISSIPPKKLLEYLPRLEEISYKTIYGSDYGGPGIKSISYNLREFLSLNISEKAKLDMGSNNPKALYKPLE

Results are given in words; binding and its absence hold for the method and conditions named. Binding seen in cells or lysates may run through a third protein. Here binding means that the protein was enriched with, or labelled near, the bait; the list need not be complete. Tags and fused reporters may be left off the sequences shown.

This passage reports binding results from publication PMC6105217.

The experiment addresses T1, N-His-aIF5A produced in Sso PH1-16 (pMJ05-N-His-aIF5A) (Sulfolobus solfataricus). Put plainly: affinity purification with mass spectrometry; N-His-aIF5A and co-purifying proteins from lysate of Sso PH1-16 (pMJ05-N-His-aIF5A) on Ni-NTA agarose; wash with 300 mM NaCl; whole eluate digested with trypsin, LC-MS/MS, label free quantification against a mock purification; enriched more than ….
As to B1, the binding result was “binds”.
In the case of B2, the binding result is “binds”.
Regarding B3, the binding result is recorded as “binds”.
With B4, the binding result is “binds”.
Regarding B5, the binding result is recorded as “binds”.
Take B6: the binding result is reported as “binds”.
As to B7, the binding result is listed as “binds”.
B8: the binding result was “binds”.
Take B9: the binding entry was “binds”.
For the molecule B10, the binding result is “binds”.
